Holding throughout (assay): photoaffinity crosslinking
Series [1] concerns Ku antigen (Ku70/Ku80) (human (HeLa cells)). The following applies: 100 nM protein, 100 nM DNA, EDTA, UV photo-crosslinking, 100 nM 5'-32P photoreactive DNA, EDTA present, Pol beta carried over from probe synthesis, SDS-PAGE, binding buffer, native protein, label: 5'-32P on strand 1, letters put together from the description.
In the next series the target is T1, PARP3 (human) (UniProt Q9Y6F1).
T1 sequence (looked up, limits assumed): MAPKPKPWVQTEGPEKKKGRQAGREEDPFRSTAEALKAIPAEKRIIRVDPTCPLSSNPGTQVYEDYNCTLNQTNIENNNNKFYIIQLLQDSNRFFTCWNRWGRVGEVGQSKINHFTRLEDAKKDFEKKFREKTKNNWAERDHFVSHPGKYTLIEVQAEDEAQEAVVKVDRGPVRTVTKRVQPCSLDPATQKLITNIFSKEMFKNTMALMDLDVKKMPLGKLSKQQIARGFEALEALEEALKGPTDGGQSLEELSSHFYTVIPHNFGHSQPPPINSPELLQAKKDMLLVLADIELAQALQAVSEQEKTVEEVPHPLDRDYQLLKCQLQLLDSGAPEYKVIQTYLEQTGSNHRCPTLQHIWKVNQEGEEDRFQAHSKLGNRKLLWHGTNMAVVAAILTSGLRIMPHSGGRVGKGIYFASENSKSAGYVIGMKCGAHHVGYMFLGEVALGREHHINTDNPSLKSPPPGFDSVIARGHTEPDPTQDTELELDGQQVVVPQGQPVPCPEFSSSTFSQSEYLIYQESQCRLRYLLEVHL
The following applies: 300 nM protein per legend, 100 nM DNA, EDTA, considerably lower than PARP1 and PARP2; strand 1 3'-terminal C is FAP-dCMP (photoreactive exo-N-substituted dC); strand 2 carries 5'-dRP (phosphate-linked, from Ung-treated 5'-pU); UV photo-crosslinking, 100 nM 5'-32P photoreactive DNA, EDTA present, Pol beta carried over from probe synthesis, SDS-PAGE; binding buffer; recombinant protein; label: 5'-32P on strand 1; letters put together from the description.

The next series concerns the target T2, HMGB1 (calf (thymus)) (UniProt P10103).
T2 sequence (looked up, limits assumed): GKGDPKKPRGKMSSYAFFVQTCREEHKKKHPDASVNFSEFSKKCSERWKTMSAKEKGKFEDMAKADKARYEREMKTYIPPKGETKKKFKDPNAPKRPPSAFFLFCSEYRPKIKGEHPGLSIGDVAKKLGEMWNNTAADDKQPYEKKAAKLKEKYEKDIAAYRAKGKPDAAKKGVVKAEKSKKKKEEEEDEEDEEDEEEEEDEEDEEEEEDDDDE
The following applies: 300 nM protein, 100 nM DNA, EDTA, UV photo-crosslinking, 100 nM 5'-32P photoreactive DNA, EDTA present, Pol beta carried over from probe synthesis, SDS-PAGE, binding buffer, native protein, label: 5'-32P on strand 1, letters put together from the description.

The target in series [2] is DNA polymerase beta (human) (UniProt P06746). The following applies: 200 nM protein, 100 nM DNA, EDTA, UV photo-crosslinking, 100 nM 5'-32P photoreactive DNA, EDTA present, Pol beta carried over from probe synthesis, SDS-PAGE, binding buffer, recombinant protein, label: 5'-32P on strand 1, letters put together from the description.
The target in a further series is PARP1 (human) (UniProt P09874). The following applies: 100 nM protein, 100 nM DNA, EDTA, strand 1 3'-terminal C is FAP-dCMP, UV photo-crosslinking, 100 nM 5'-32P photoreactive DNA, EDTA present, Pol beta carried over from probe synthesis, SDS-PAGE, binding buffer, recombinant protein, label: 5'-32P on strand 1, letters put together from the description.
For a further series, the target named is FEN1 (human) (UniProt P39748). The following applies: 100 nM protein, 100 nM DNA, EDTA; strand 1 3'-terminal C is FAP-dCMP; UV photo-crosslinking, 100 nM 5'-32P photoreactive DNA, EDTA present, Pol beta carried over from probe synthesis, SDS-PAGE; binding buffer; recombinant protein; label: 5'-32P on strand 1; letters put together from the description.
Where [3] appears, read: strand 1 3'-terminal C is FAP-dCMP (photoreactive exo-N-substituted dC), strand 2 carries 5'-dRP (phosphate-linked, from Ung-treated 5'-pU).
Where [4] appears, read: strand 1 3'-terminal C is FAP-dCMP, strand 2 carries 5'-phospho-diethylene glycol phosphate (p-DEG).
The mark [5] stands for this setting: strand 1 3'-terminal C is FAP-dCMP.

Three sequences from article PMC6535076 can be followed below.

For part of these data: Weaker means in comparison with the reference protein, sequence or condition of that experiment. For part of these data: Protein sequences can lack the tags named with them. The exact form of at least one protein or probe is not confirmed. For part of these data: At least one verdict was read from the data and is not stated in words by the source.

Turning to “GGCGACTAAGCCGGGC / AACGCCAGGGCCTCCC / GGGAGGCCCTGGCGTTGCCCGGCTTAGTCGCC [Pho-dRP]”, the binding result in series [1] (setting [3]) is reported as “binds”; with PARP3 (human), “binds more weakly”; with HMGB1 (calf (thymus)) (setting [3]), “binds more weakly”; in series [2] (setting [3]), “binds”.

Consider “GGCGACTAAGCCGGGC / AACGCCAGGGCCTCCC / GGGAGGCCCTGGCGTTGCCCGGCTTAGTCGCC [Pho-pDEG]”, for which the binding result is given as “binds” in series [1] (setting [4]), “binds” in the series with PARP1 (human) (strand 2 carries 5'-phospho-diethylene glycol phosphate (p-DEG)), “binds more weakly” with HMGB1 (calf (thymus)) (setting [4]) and “binds” in series [2] (setting [4]).

Consider “GGCGACTAAGCCGGGC / GATAACAACGCCAGGGCCTCCC / GGGAGGCCCTGGCGTTGCCCGGCTTAGTCGCC [Pho-Flap]”, for which the binding result with FEN1 (human) is on record as “binds”; in series [1] (setting [5]), “binds”; in the series with PARP1 (human) (lowest intensity of the three DNAs), “binds more weakly”; in series [2] (setting [5]) it was “binds”.
